{"source": "paper PMC7168109", "molecular_target": "T1, PTK7 (tyrosine protein kinase 7, CCK4) on CCRF-CEM or Jurkat cells (UniProt Q13308)", "T1 sequence": "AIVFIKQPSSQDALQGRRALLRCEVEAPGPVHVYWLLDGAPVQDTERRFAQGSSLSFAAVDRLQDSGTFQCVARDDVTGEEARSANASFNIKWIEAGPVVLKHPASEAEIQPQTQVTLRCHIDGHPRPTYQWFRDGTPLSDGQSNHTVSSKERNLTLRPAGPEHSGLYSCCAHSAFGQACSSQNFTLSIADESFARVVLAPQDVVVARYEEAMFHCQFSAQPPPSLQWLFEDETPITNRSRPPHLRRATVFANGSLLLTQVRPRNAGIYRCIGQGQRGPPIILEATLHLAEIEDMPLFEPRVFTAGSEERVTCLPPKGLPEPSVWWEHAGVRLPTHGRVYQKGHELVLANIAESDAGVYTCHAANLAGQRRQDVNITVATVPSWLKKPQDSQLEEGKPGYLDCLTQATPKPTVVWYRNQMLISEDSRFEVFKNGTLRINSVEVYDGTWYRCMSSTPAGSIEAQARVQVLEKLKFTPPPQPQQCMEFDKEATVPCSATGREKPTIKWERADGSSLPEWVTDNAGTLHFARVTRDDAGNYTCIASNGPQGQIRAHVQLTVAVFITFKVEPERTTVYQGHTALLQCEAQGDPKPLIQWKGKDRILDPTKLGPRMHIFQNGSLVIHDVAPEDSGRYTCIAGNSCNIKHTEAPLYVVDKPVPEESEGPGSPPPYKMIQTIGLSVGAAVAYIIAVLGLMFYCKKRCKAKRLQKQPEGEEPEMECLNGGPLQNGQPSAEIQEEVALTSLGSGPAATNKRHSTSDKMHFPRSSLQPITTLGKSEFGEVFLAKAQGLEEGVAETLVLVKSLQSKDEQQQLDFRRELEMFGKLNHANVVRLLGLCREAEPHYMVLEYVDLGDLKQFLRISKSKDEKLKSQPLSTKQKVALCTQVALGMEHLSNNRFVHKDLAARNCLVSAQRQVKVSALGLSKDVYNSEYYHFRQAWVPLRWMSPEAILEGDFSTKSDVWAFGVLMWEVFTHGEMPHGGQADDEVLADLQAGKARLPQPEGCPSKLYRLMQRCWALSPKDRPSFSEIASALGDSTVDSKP", "assay": "flow cytometry", "settings": "200 nM aptamer, Flow cytometry on whole cells: 200 nM aptamer, 4 °C, 30 min in the dark, cells washed with PBS before incubation, three washes after, binding buffer and pH not stated, protein on the cell surface, label: 5'-FAM, single-stranded DNA", "note": "Construct, isoform or probe ends are uncertain for at least one entry. Results from cells or extracts need not show a direct contact. At least one verdict rests on a figure or table, not on a statement of the authors."}
{"sequence": "TTTTTTTTTTATCTAACTGCTGCGCCGCCGGGAAAATACTGTACGGTTAGA [Sgc8-FAM]", "values": [{"measurement": "binding result", "setting": "CCRF-CEM cells (PTK7-positive), stronger shift than Jurkat", "result": "binds"}, {"measurement": "binding result", "setting": "Jurkat cells (PTK7-positive), strong binding, smaller shift than CCRF-CEM", "result": "binds"}]}
